{
  "source": "paper PMC5662769",
  "about": "“A-ZIP53, a dominant negative reveals the molecular mechanism of heterodimerization between bZIP53, bZIP10 and bZIP25 involved in Arabidopsis seed maturation” (Scientific Reports, 2017)",
  "binders": {"B1": {"name": "bZIP53 DNA binding domain and leucine zipper region (Y18-D116) (domain or fragment, Arabidopsis thaliana, UniProt Q9LZP8 18-116, looked up)", "chain": "YATVTDERKRKRMISNRESARRSRMRKQKQLGDLINEVTLLKNDNAKITEQVDEASKKYIEMESKNNVLRAQASELTDRLRSLNSVLEMVEEISGQALD", "notes": "An internal HindIII site of the amplicon was destroyed by site-directed mutagenesis; Measured monomer mass 12957 Da; In the protoplast reporter assays the full-length protein was expressed from a plasmid; also called basic leucine zipper 53; source: E. coli BL21 (DE-3), HPLC purified"}},
  "key": {"[1]": {"target": "T1, bZIP25 DNA binding domain and leucine zipper region (V230-S322) (Arabidopsis thaliana) (UniProt Q9M1G6)", "T1 sequence": "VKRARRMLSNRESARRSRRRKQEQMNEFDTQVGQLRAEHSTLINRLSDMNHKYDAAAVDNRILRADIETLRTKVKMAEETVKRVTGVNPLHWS", "test": "CD thermal denaturation; equimolar mixture of two proteins (2 µM dimer each, 4 µM dimer mixture), ellipticity at 222 nm, heated from 6–85 °C; mixture curve compared with the theoretical sum line; KD of the heterodimer at 25 °C calculated from ΔGDi; both purified"}, "[2]": {"target": "T1, bZIP25 DNA binding domain and leucine zipper region (V230-S322) (Arabidopsis thaliana)", "test": "native MS; ESI-MS in unbuffered MS grade water, 2 µM homodimer, 4 µM heterodimer mixtures, samples kept at 23 ± 2 °C, ion spray interface temperature switched off, declustering potential 10 V; both purified"}},
  "note": "Results are given in words; binding and its absence hold for the method and conditions named.",
  "data": [
    {"binder": "B1", "values": [
      {"measurement": "binding", "setting": "[1]", "value": "no binding (tested: 2 µM dimer each)"},
      {"measurement": "binding", "setting": "[2]", "value": "no binding (tested: 2 µM each)"}
    ]}
  ]
}
